Record: PubChem BioAssay AID1224826 (NIAID, 2016)

- Aim: 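Regulators of Tlr4 signalling leading to Tnf-alpha expression in macrophages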 (primary screen)
- Cell system: RAW264.7 G9 macrophages from mouse bearing reporters for p65 (GFP) and the Tnf promoter (mCherry)
- Knock-down reagent: siRNA pool against mouse genes, 100 nM
- Time to read-out: 16 h of LPS stimulation, after 2 days of siRNA transfection
- Challenge: bacterial lipopolysaccharide (Salmonella minnesota R595), 10 ng/ml
- Detection: 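Imaged Tnf reporter mCherry in nuclei, minus background, normalised per plate to the median and expressed as robust z-scores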
- Direction: Tnf reporter robust z-score: higher = stronger Tnf promoter reporter signal after LPS
- Rule for the call: 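a well counts as active at a score of -1.3 or below (Tlr4 knock-down control median) or above 3 (raised signal); controls and wells holding fewer than 50 cells are excluded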
- Meaning of the calls: active = Tnf reporter clearly lowered or raised; inactive = no clear change in Tnf reporter
Shown is one part, drawn at random, of about 17,000 reagents tested. About 1,110 of them (6.6%) count as active. 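Active means lowered or raised reporter signal; replicate intensities are raw and not normalised per plate.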 Not all columns of the deposit are shown.

Ltk → Tnf reporter robust z-score: 2.81; fewer than 50 cells in well: enough cells in well; Call: inactive
9130401M01Rik → Tnf reporter robust z-score: -0.85; fewer than 50 cells in well: enough cells in well; Call: inactive
Hsd17b13 → Tnf reporter robust z-score: -0.26; fewer than 50 cells in well: enough cells in well; Call: inactive
Prrc2b → Tnf reporter robust z-score: -0.09; fewer than 50 cells in well: enough cells in well; Call: inactive
Zfp647 → fewer than 50 cells in well: fewer than 50 cells per well; well left out of calls; Call: inactive
Pou4f2 → Tnf reporter robust z-score: -1.66; fewer than 50 cells in well: enough cells in well; Call: active
Ddx25 → Tnf reporter robust z-score: 1.02; fewer than 50 cells in well: enough cells in well; Call: inactive
Lix1 → Tnf reporter robust z-score: 1.51; fewer than 50 cells in well: enough cells in well; Call: inactive
Ccn2 → Tnf reporter robust z-score: -0.47; fewer than 50 cells in well: enough cells in well; Call: inactive
Mast1 → Tnf reporter robust z-score: 1.68; fewer than 50 cells in well: enough cells in well; Call: inactive
Matn3 → Tnf reporter robust z-score: -0.47; fewer than 50 cells in well: enough cells in well; Call: inactive
Actr2 → Tnf reporter robust z-score: -0.38; fewer than 50 cells in well: enough cells in well; Call: inactive
Tceal6 → Tnf reporter robust z-score: 1.34; fewer than 50 cells in well: enough cells in well; Call: inactive
Grik2 → Tnf reporter robust z-score: 0.38; fewer than 50 cells in well: enough cells in well; Call: inactive
Or2v2 → Tnf reporter robust z-score: 0.38; fewer than 50 cells in well: enough cells in well; Call: inactive
Vps16 → Tnf reporter robust z-score: 2.99; fewer than 50 cells in well: enough cells in well; Call: inactive
Elmo3 → Tnf reporter robust z-score: -0.02; fewer than 50 cells in well: enough cells in well; Call: inactive
Rab40c → Tnf reporter robust z-score: -0.5; fewer than 50 cells in well: enough cells in well; Call: inactive
Pla2g5 → Tnf reporter robust z-score: -0.37; fewer than 50 cells in well: enough cells in well; Call: inactive
Or4k6 → fewer than 50 cells in well: fewer than 50 cells per well; well left out of calls; Call: inactive
Chsy3 → fewer than 50 cells in well: fewer than 50 cells per well; well left out of calls; Call: inactive
